PMC10298087
Numbering of substitutions follows the chain as printed. Results are given in words; binding and its absence hold for the method and conditions named. Binding seen in cells or lysates may run through a third protein. Binding calls can cover weak binding; strength is not graded here. Tags and fused reporters may be left off the sequences shown.

What was measured:
Assay in all cases: co-IP; FLAG-tagged mouse Trim28 (WT or mutants) and Gal4^DBD-KRAB in TRIM28-knockout K562 cells; IP with anti-FLAG, Western blot with anti-FLAG and anti-Gal4; whole-cell extract buffer with 300 mM NaCl, 0.1% Triton X-100, 4 °C
[1] = molecular target: T1, FLAG-tagged mouse Trim28-K305R (mouse) (UniProt Q62318)
T1 sequence: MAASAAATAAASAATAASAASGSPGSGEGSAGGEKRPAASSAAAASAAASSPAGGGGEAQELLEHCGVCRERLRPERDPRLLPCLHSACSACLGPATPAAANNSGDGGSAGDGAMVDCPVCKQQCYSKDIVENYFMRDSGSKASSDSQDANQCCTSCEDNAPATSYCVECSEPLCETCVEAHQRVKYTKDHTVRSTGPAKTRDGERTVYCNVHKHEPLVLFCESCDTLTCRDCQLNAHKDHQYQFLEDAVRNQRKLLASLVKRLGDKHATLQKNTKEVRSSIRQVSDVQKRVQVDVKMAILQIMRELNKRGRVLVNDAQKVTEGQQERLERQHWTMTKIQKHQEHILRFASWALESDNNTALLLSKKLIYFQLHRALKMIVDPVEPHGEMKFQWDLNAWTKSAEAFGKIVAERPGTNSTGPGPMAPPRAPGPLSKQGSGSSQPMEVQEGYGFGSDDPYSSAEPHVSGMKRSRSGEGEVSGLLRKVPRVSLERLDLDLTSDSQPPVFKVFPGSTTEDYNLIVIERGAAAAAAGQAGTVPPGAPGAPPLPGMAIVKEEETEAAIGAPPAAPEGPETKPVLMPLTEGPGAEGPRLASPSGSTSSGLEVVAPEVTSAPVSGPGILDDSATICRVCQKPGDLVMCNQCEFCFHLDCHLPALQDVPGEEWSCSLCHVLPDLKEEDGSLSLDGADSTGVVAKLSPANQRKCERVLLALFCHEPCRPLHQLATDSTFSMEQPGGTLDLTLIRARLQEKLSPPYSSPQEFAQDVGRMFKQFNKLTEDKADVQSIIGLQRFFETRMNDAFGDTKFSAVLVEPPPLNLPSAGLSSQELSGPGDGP

[2] = molecular target: T2, FLAG-tagged mouse Trim28-K255R (mouse) (UniProt Q62318)
T2 sequence: T1 sequence with K255R, R305K

[3] = molecular target: T3, FLAG-tagged mouse Trim28-K305Q (mouse) (UniProt Q62318)
T3 sequence: T1 sequence with R305Q

Measured: binding

Gal4 DNA-binding domain (Gal4^DBD)-KRAB (domain or fragment)
binds: all assays above
